Consider four molecules from publication PMC4762385.

Assay [1] deals with T1, OsRPA1c, bait in pGBKT7 (rice (Oryza sativa L.)) (UniProt Q65XV7).
T1 sequence: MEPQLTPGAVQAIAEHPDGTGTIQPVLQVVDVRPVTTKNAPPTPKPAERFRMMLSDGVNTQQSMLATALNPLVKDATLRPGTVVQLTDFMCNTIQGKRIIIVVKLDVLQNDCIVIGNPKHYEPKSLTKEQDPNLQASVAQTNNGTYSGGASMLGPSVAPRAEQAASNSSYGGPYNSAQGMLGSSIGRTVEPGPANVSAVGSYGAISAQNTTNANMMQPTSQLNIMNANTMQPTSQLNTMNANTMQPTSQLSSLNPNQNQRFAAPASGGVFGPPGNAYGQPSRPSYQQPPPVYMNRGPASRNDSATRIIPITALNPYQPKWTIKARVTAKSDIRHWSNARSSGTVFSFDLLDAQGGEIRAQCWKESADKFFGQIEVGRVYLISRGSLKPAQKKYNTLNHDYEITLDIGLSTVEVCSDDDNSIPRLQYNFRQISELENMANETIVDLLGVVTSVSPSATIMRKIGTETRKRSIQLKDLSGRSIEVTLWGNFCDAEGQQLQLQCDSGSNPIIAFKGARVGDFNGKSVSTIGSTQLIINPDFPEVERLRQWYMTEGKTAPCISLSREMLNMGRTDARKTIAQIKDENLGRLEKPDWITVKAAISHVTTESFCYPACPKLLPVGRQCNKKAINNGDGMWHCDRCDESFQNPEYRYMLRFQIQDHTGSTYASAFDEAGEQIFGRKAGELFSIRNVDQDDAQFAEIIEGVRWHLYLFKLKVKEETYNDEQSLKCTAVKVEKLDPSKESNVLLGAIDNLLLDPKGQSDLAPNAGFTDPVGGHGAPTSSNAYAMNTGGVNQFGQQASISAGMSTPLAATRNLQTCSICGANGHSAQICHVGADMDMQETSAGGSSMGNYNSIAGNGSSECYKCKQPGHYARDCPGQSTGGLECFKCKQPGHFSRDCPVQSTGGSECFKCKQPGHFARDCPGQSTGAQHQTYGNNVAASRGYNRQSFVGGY
The assay can be described thus: two-hybrid; pGADT7 prey and pGBKT7 bait co-transformed into Gold yeast; dilution series spotted on -LTH or -LTHA medium with X-alpha-gal, 30 °C.

Assay [2] concerns the target T2, OsRPA2c, bait in pGBKT7 (rice (Oryza sativa L.)) (UniProt Q5Z8L1).
T2 sequence: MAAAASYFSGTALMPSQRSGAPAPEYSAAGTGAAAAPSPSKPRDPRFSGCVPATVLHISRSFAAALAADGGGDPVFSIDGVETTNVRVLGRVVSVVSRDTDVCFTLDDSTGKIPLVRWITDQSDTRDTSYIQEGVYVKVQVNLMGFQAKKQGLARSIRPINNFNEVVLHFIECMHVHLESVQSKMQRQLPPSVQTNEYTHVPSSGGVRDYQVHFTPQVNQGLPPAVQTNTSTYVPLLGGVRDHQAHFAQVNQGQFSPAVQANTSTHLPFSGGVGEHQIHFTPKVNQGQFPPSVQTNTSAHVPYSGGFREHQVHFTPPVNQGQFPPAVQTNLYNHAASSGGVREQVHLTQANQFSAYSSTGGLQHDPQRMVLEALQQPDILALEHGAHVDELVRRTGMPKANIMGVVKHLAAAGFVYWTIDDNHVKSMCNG
The description is as above.

In assay [3] the target is GST–OsMSH5 (rice (Oryza sativa L.)). The assay can be described thus: pull-down; GST- and OsMSH5–GST-coupled beads used to capture MBP fusions of OsRPA1a, OsRPA2b, OsRPA1c, OsRPA2c; proteins from E. coli BL21; detected with anti-MBP antibody.

Results are given in words; binding and its absence hold for the method and conditions named. A result given as binding can be weak or reduced; the word gives no strength. For part of these data: Binding seen in cells or lysates may run through a third protein. For part of these data: Where a sequence is shown, tags or fusion partners need not be part of it.

With “OsMSH4 (wild type, two-hybrid fusion) (rice (Oryza sativa L.))”, the binding entry in assay [1] and in assay [2] was “no binding” in each case.
With “OsMSH5 (full-length, in prey vector pGADT7) (rice (Oryza sativa L.))”, the binding entry in assay [1] and in assay [2] was “binds” throughout.

B1: MBP–OsRPA1c (protein, UniProt Q65XV7 1-951)
chain: MEPQLTPGAVQAIAEHPDGTGTIQPVLQVVDVRPVTTKNAPPTPKPAERFRMMLSDGVNTQQSMLATALNPLVKDATLRPGTVVQLTDFMCNTIQGKRIIIVVKLDVLQNDCIVIGNPKHYEPKSLTKEQDPNLQASVAQTNNGTYSGGASMLGPSVAPRAEQAASNSSYGGPYNSAQGMLGSSIGRTVEPGPANVSAVGSYGAISAQNTTNANMMQPTSQLNIMNANTMQPTSQLNTMNANTMQPTSQLSSLNPNQNQRFAAPASGGVFGPPGNAYGQPSRPSYQQPPPVYMNRGPASRNDSATRIIPITALNPYQPKWTIKARVTAKSDIRHWSNARSSGTVFSFDLLDAQGGEIRAQCWKESADKFFGQIEVGRVYLISRGSLKPAQKKYNTLNHDYEITLDIGLSTVEVCSDDDNSIPRLQYNFRQISELENMANETIVDLLGVVTSVSPSATIMRKIGTETRKRSIQLKDLSGRSIEVTLWGNFCDAEGQQLQLQCDSGSNPIIAFKGARVGDFNGKSVSTIGSTQLIINPDFPEVERLRQWYMTEGKTAPCISLSREMLNMGRTDARKTIAQIKDENLGRLEKPDWITVKAAISHVTTESFCYPACPKLLPVGRQCNKKAINNGDGMWHCDRCDESFQNPEYRYMLRFQIQDHTGSTYASAFDEAGEQIFGRKAGELFSIRNVDQDDAQFAEIIEGVRWHLYLFKLKVKEETYNDEQSLKCTAVKVEKLDPSKESNVLLGAIDNLLLDPKGQSDLAPNAGFTDPVGGHGAPTSSNAYAMNTGGVNQFGQQASISAGMSTPLAATRNLQTCSICGANGHSAQICHVGADMDMQETSAGGSSMGNYNSIAGNGSSECYKCKQPGHYARDCPGQSTGGLECFKCKQPGHFSRDCPVQSTGGSECFKCKQPGHFARDCPGQSTGAQHQTYGNNVAASRGYNRQSFVGGY
Regarding B1, in assay [3], the binding entry is “binds”.

B2: MBP–OsRPA2c (protein, UniProt Q5Z8L1 1-430)
chain: MAAAASYFSGTALMPSQRSGAPAPEYSAAGTGAAAAPSPSKPRDPRFSGCVPATVLHISRSFAAALAADGGGDPVFSIDGVETTNVRVLGRVVSVVSRDTDVCFTLDDSTGKIPLVRWITDQSDTRDTSYIQEGVYVKVQVNLMGFQAKKQGLARSIRPINNFNEVVLHFIECMHVHLESVQSKMQRQLPPSVQTNEYTHVPSSGGVRDYQVHFTPQVNQGLPPAVQTNTSTYVPLLGGVRDHQAHFAQVNQGQFSPAVQANTSTHLPFSGGVGEHQIHFTPKVNQGQFPPSVQTNTSAHVPYSGGFREHQVHFTPPVNQGQFPPAVQTNLYNHAASSGGVREQVHLTQANQFSAYSSTGGLQHDPQRMVLEALQQPDILALEHGAHVDELVRRTGMPKANIMGVVKHLAAAGFVYWTIDDNHVKSMCNG
Consider B2, for which the binding result in assay [3] was “binds”.
